Assay results from PubChem BioAssay AID504582 (Broad Institute, 2011).
About 2,300 (0.68%) of roughly 340,000 compounds were called active. This list was built around the results that the source calls inconclusive (neither active nor inactive); the mix of calls is not that of the screen. Cut-off read from the data, not from the text of the source: active = growth rescue above about 28% (passing the limit was not always enough); inconclusive = no clear call, values can overlap the other calls.

assay: rescue of yeast from PfHsp40 toxicity, primary screen, S. cerevisiae, ATP luminescence (AID 504582);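 note: yeast W303a lacking pdr1 and pdr3 grown in galactose medium; growth measured after three days at 30 °C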; conditions: S. cerevisiae expressing PfHsp40, growth rescue, at 12.5 µM, hits give high values

SMILES | growth rescue
Cc1cc2c(c(=O)n1C)C(Cc1ccccc1)C(C#N)=C(N)O2 (stereo not drawn) | inconclusive: 46.4%
COc1ccc(N=c2oc3c(OC)cccc3cc2C(=O)NCc2ccco2)cc1OC | inactive: -0.93%
CCCCCCCCCCCCCCCC[n+]1ccc(C(N)=O)cc1 | inconclusive: 142%
CCCCOc1ccc(Cc2cnc(N)nc2N)cc1 | inconclusive: 26.3%
N/C(=N\N=C\c1ccc(O)cc1)c1nonc1N | inactive: -1.17%
CN(C)C(=O)c1cnc(-c2ccccc2)nc1-c1ccccc1 | inconclusive: 25.4%
C=C(C)C1CC=C(C)/C(=N/NC(=O)CNc2ccc(OCC)cc2)C1 (stereo not drawn) | inactive: -0.585%
COc1ccccc1N1CCN(C(=O)c2cc3c(s2)CCCCC3)CC1 | inactive: 3.74%
C=CCN(CC=C)S(=O)(=O)c1ccc(NC(=S)NC(=O)c2ccco2)cc1 | active: 55.3%
O=C(C1CCCN(Cc2ccc([N+](=O)[O-])cc2)C1)N1CCCCC1 (stereo not drawn) | inconclusive: 28%
CCOC(=O)N=Nc1c(O)n(CC)c2ccccc12 | inconclusive: 26%
CCNC(=S)NNC(=O)c1cc(-c2cccc(OC)c2)nc2ccccc12 | inactive: 0.228%
CC(NC(=O)CN1C(=O)NC2(CCCC2)C1=O)c1ccc(Cl)cc1Cl (stereo not drawn) | active: 61.4%
Nc1nc2nccc(-c3ccc(Cl)cc3)n2n1 | active: 185%
N#CC1C(=N)Cc2ccccc2-c2ccccc21 (stereo not drawn) | active: 39.3%
C[n+]1c(-c2ccccc2)sc2ccccc21 | inconclusive: 65%
CCCOC(=O)c1ccc(Oc2c(-c3ccc(OCC)cc3O)n[nH]c2C)cc1 | inconclusive: 269%
COc1ccc(-c2cc(-c3cc(OC)ccc3O)[nH]n2)cc1 | inconclusive: 51.4%
CCN(CC)c1ccc(/C=N/NC(=O)c2cnccn2)c(O)c1 | active: 77.4%
COc1cc(OC)c(OC)cc1/C=N/n1c(COc2ccccc2)n[nH]c1=S | inactive: -0.224%

SMILES | growth rescue
O=C1C(Cl)=C(Nc2ccccc2O)C(=O)N1CCc1ccccc1 | active: 142%
O=C(Nc1ccc(Cl)c(Cl)c1)Nc1ccccc1O | inconclusive: 50.3%
CCS(=O)(=O)N1CCN(c2c(Cl)cccc2[N+](=O)[O-])CC1 | inconclusive: 25.8%
COc1ccc(-c2ccc(C(C)=O)cc2)cc1[C@H]1[C@H]2C=CC[C@@H](C)[C@@H]2C(=O)N1Cc1ccccc1 | inconclusive: 38.8%
c1ccc2c(-c3ccc(OCCN4CCCCC4)cc3)c(-c3ccsc3)sc2c1 | inconclusive: 89.7%
Cn1c(CNc2ccc(Cl)cc2)nnc1SCc1ccccc1 | active: 143%
CNc1ncnc2sc(-c3ccccc3)cc12 | inactive: 3.47%
COc1ccc(OC)c(N2C(=O)NC(=O)C3(Cc4cc(C)ccc4N(C)C3)C2=O)c1 (stereo not drawn) | inactive: -0.919%
C[C@H]1C[C@H]2[C@@H]3CCC4=CC(=O)C=C[C@]4(C)[C@@]3(Cl)[C@@H](O)C[C@]2(C)[C@@]1(O)C(=O)CO | active: 36.3%
O=C1C(=O)N(CCCN2CCOCC2)C(c2ccc(F)cc2)/C1=C(/O)c1ccccc1 (stereo not drawn) | active: 62.6%
Cn1nccc1C(=O)N1CCCC(C(=O)c2ccc(Oc3ccccc3)cc2)C1 (stereo not drawn) | inactive: 1.09%
C/C=C/c1ccc(OCCOc2cc(C=O)ccc2OC)c(OC)c1 | active: 39.3%
O=C(c1cccn2c(=O)c3cc(Cl)ccc3nc12)N1CCN(Cc2ccc3c(c2)OCO3)CC1 | inactive: 1.01%
COc1ccccc1CNC(=O)C1CC2Cn3c(nc4cc(Cl)c(Cl)cc43)C2N1C (stereo not drawn) | inconclusive: 47.9%
Cc1cccc(NC(=O)c2ccc(N3C(=O)C4CCCCC4C3=O)cc2)c1C (stereo not drawn) | inconclusive: 42.4%
COC(=O)[C@H](Cc1ccccc1)NC(=O)NCCc1ccc(OC)cc1 | inconclusive: 50.1%
CCn1c(CNc2ccc(Cl)cc2)nnc1SCc1ccc(C)cc1 | inconclusive: 146%
COc1ccc(OCc2cc(C(=O)N3C[C@@H](C)O[C@@H](C)C3)no2)c(Cl)c1 | inconclusive: 32%
CC(=O)N1c2ccc(S(=O)(=O)N3CCCCC3)cc2CC1C(=O)NCc1ccccc1C (stereo not drawn) | inactive: 1.05%
CCOCCCn1c(=N)c(C(=O)NCCN2CCOCC2)cc2c(=O)n3cccc(C)c3nc21 | inactive: 1.18%

A second format for 4 compounds above:
O=C1C(Cl)=C(Nc2ccccc2O)C(=O)N1CCc1ccccc1
  growth rescue: active: 142%
COC(=O)[C@H](Cc1ccccc1)NC(=O)NCCc1ccc(OC)cc1
  growth rescue: inconclusive: 50.1%
CCn1c(CNc2ccc(Cl)cc2)nnc1SCc1ccc(C)cc1
  growth rescue: inconclusive: 146%
COc1ccc(OCc2cc(C(=O)N3C[C@@H](C)O[C@@H](C)C3)no2)c(Cl)c1
  growth rescue: inconclusive: 32%

Next part.

SMILES | growth rescue
Cc1ccccc1CN(C)CCS(=O)(=O)c1cc(Cl)ccc1Cl | active: 60.7%
Cc1ccc(Nc2cc(C)nn2-c2nc(C)cc(C)n2)cc1 | inconclusive: 77.7%
COc1cccc(/C=N/Nc2ccc(S(=O)(=O)O)cc2)c1O | inactive: 0.416%
O=C(O)c1ccc(/C=N/Nc2cccc(C(F)(F)F)c2)cc1 | inconclusive: 91.7%
COc1ccc(Nc2oc(COc3ccc(C)cc3)nc2C#N)cc1 | inconclusive: 25.3%
CCOc1ccccc1NC(=S)N(CCOC)C1CCN(C(C)=O)CC1 | inconclusive: 41.6%
O=C(N/N=C\c1ccc([N+](=O)[O-])s1)c1cncc(Br)c1 | inactive: -0.722%
Oc1c(CN2CCc3ccccc3C2)cc(Cl)c2cccnc12 | active: 282%
COCCCn1c(=O)c2ccccc2n(CC(=O)Nc2ccc3c(c2)OCCO3)c1=O | inactive: -1.1%
COc1ccc(CN2CCN(Cc3ccccc3C(F)(F)F)CC2)c(OC)c1 | inactive: 0.282%
C/C=C/c1ccc(OCCOCCNCc2ccccc2)c(OC)c1 | inconclusive: 26.1%
CC(C)(C)c1ccc(C(=O)NC(=S)NNC(=O)c2cccs2)cc1 | active: 465%
CC1CC(C)(C)OC(C[N+]2(C)CCCCC2)O1 (stereo not drawn) | inactive: -1.5%
CCOC(CCn1ccc(O)c(Cc2ccc(Cl)cc2)c1=O)OCC | inactive: 1.57%
CCN(CC)CCn1c(NC(=O)c2ccc(Cl)cc2)nc2ccccc21 | inconclusive: 26.4%
Fc1cccc(Nc2nc(-c3ccncc3)nc3ccccc23)c1 | inconclusive: 75%
O=C(COC(=O)C(Cc1ccccc1)NC(=O)c1cccs1)NCc1ccccc1 (stereo not drawn) | inconclusive: 94.4%
COc1ccc(CCNC(=O)c2nnn(-c3cc(C)cc(C)c3)c2N)cc1OC | inconclusive: 28.8%
